Test results from paper PMC4962003.
These are yes or no findings as the source states them, for the method shown.

Biological target: T1, MutY (Bacillus subtilis) (UniProt O31584)
T1 sequence: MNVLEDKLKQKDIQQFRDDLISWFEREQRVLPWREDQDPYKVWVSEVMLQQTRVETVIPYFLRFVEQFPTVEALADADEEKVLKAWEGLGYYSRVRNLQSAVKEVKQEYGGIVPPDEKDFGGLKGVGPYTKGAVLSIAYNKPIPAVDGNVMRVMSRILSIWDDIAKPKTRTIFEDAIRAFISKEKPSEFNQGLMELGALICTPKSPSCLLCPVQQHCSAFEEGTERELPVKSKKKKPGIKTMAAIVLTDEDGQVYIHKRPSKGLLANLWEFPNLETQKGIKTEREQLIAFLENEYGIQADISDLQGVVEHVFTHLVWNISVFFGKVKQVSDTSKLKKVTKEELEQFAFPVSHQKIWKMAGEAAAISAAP
Experiment: two-hybrid; BacterioMatch bacterial two-hybrid in an E. coli reporter strain; pBT fusion as bait, pTRG fusion as target; read-out is growth of colonies on screening medium (SM) against non-screening medium (NSM)

- binding: no binding
B1: Mfd (protein, UniProt P37474 1-1177)
chain: MDNIQTFIKESDDFKSIINGLHEGLKEQLLAGLSGSARSVFTSALANETNKPIFLITHNLYQAQKVTDDLTSLLEDRSVLLYPVNELISSEIAVASPELRAQRLDVINRLTNGEAPIVVAPVAAIRRMLPPVEVWKSSQMLIQVGHDIEPDQLASRLVEVGYERSDMVSAPGEFSIRGGIIDIYPLTSENPVRIELFDTEVDSIRSFNSDDQRSIETLTSINIGPAKELIIRPEEKARAMEKIDSGLAASLKKLKADKQKEILHANISHDKERLSEGQTDQELVKYLSYFYEKPASLLDYTPDNTLLILDEVSRIHEMEEQLQKEEAEFITNLLEEGKILHDIRLSFSFQKIVAEQKRPLLYYSLFLRHVHHTSPQNIVNVSGRQMQSFHGQMNVLAGEMERFKKSNFTVVFLGANKERTQKLSSVLADYDIEAAMTDSKKALVQGQVYIMEGELQSGFELPLMKLAVITEEELFKNRVKKKPRKQKLTNAERIKSYSELQIGDYVVHINHGIGKYLGIETLEINGIHKDYLNIHYQGSDKLYVPVEQIDQVQKYVGSEGKEPKLYKLGGSEWKRVKKKVETSVQDIADDLIKLYAEREASKGYAFSPDHEMQREFESAFPYQETEDQLRSIHEIKKDMERERPMDRLLCGDVGYGKTEVAIRAAFKAIGDGKQVALLVPTTILAQQHYETIKERFQDYPINIGLLSRFRTRKEANETIKGLKNGTVDIVIGTHRLLSKDVVYKDLGLLIIDEEQRFGVTHKEKIKQIKANVDVLTLTATPIPRTLHMSMLGVRDLSVIETPPENRFPVQTYVVEYNGALVREAIERELARGGQVYFLYNRVEDIERKADEISMLVPDAKVAYAHGKMTENELETVMLSFLEGESDVLVSTTIIETGVDIPNVNTLIVFDADKMGLSQLYQLRGRVGRSNRVAYAYFTYRRDKVLTEVAEKRLQAIKEFTELGSGFKIAMRDLTIRGAGNLLGAQQHGFIDSVGFDLYSQMLKEAIEERKGDTAKTEQFETEIDVELDAYIPETYIQDGKQKIDMYKRFRSVATIEEKNELQDEMIDRFGNYPKEVEYLFTVAEMKVYARQERVELIKQDKDAVRLTISEEASAEIDGQKLFELGNQYGRQIGLGMEGKKLKISIQTKGRSADEWLDTVLGMLKGLKDVKKQTISST
